Data taken from article PMC2954983.
These are yes or no findings as the source states them, for the method shown. In cells and extracts the contact can be indirect. Some results given as binding are weak or reduced against the parent protein; the word gives no strength.

Chains of the proteins cited; added tags and fusions are not shown. Lines headed by an entry give the natural chain unless they say otherwise; changes in a name come on top. A line that says so, or that is headed by a name, gives the form on record, which may keep a tag or linker.
AT1R N4,176,188 D, tagged with venus1 or venus2 (P30556, form named): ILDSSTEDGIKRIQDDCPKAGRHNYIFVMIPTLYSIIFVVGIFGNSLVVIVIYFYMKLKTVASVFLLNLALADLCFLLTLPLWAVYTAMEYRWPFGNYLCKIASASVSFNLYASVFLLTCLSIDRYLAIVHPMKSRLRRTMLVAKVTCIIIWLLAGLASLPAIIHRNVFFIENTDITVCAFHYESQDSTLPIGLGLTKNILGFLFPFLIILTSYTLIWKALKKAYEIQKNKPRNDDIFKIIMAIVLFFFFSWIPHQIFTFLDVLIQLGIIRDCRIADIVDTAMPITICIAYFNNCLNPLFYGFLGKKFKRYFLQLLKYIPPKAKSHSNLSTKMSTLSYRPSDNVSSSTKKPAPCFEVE

Columns and labels:
[1] = molecular target: AT1R N4,176,188 D, tagged with venus1 or venus2 (UniProt P30556); experiment: split reporter; BiFC of venus1- and venus2-tagged receptors in transfected HEK293 cells, fixed with 3% paraformaldehyde, read by fluorescence microscopy (excitation 488 nm, emission 525 nm)
[2] = molecular target: AT1R N4,176,188 D, tagged with venus1 or venus2 (UniProt P30556); experiment: split reporter; BiFC of venus1- and venus2-tagged receptors in transfected HEK293 cells, read by Western blot of RIPA lysates with an anti-GFP antibody that does not recognise receptors carrying only one portion of venus
[3] = molecular target: angiotensin II AT1 receptor, wild type, tagged with venus1 or venus2 (UniProt P30556); experiment: split reporter; BiFC of WT AT1R-v1/v2 and β2AR-v1/v2 in transfected HEK293 cells resuspended in PBS, fluorescence read in a plate reader at 528 nm; with co-expressed Bip WT or T37G, ERp57, or inhibitory RNAs
[4] = molecular target: angiotensin II AT1 receptor, wild type, tagged with venus1 or venus2 (UniProt P30556); experiment: split reporter; BiFC of venus1- and venus2-tagged receptors in transfected HEK293 cells, fixed with 3% paraformaldehyde, read by fluorescence microscopy (excitation 488 nm, emission 525 nm)
[5] = molecular target: angiotensin II AT1 receptor, wild type, tagged with venus1 or venus2 (UniProt P30556); experiment: split reporter; BiFC of venus1- and venus2-tagged receptors in transfected HEK293 cells, read by Western blot of RIPA lysates with an anti-GFP antibody that does not recognise receptors carrying only one portion of venus

Measured: binding

AT1R N4,176,188 D, tagged with venus1 or venus2 (from UniProt P30556 2-359) (receptor)
binds: [1] | [2]

angiotensin II AT1 receptor, wild type, tagged with venus1 or venus2 (from UniProt P30556 1-359)
not listed: [2]
binds: all other assays above
